{"source": "PubChem BioAssay AID743454, Peter MacCallum Cancer Centre | 2014", "aim": "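Search for knock-downs that restore vorinostat killing in resistant colon cancer cells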 (primary screen)", "cell system": "human HCT116-VR colon cancer cells, selected for vorinostat resistance", "knock-down reagent": "siRNA pool against human genes, 40 nM siRNA pool", "timing": "vorinostat for 24 h, read-out about 72 h after transfection", "challenge": "vorinostat at 2.5 µM final", "measured": "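Cell viability by CellTiter-Fluor and caspase 3/7 activity by luminescence, each scaled to mock wells per plate, duplicates averaged, then robust z-scored over all plates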", "scale": "viability robust z-score: higher = more viable cells than screen typical; caspase robust z-score: higher = more caspase 3/7 activity than screen typical", "hit rule": "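a knock-down is a hit when classed RV1 or RV2 for lowered viability, or CA1 or CA2 for caspase activation; those lethal without drug were dropped; hits were retested singly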", "note": "The deposit covers about 18,000 reagents; this is an unselected part. 450 of all reagents (2.5%) were called active. 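Single biological run; no consistent viability z cut-off exists, so the class columns, not z-scores, define the calls.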 A number with no mark means an inactive call. Reagent sequences are not shown."}
{"target":"IFT81 (intraflagellar transport 81)","viability hit class":"no change","caspase hit class":"no change","viability robust z-score":-0.3,"caspase robust z-score":-0.43}
{"target":"OR1F1 (olfactory receptor family 1 subfamily F member 1)","viability hit class":"no change","caspase hit class":"no change","viability robust z-score":-1.21,"caspase robust z-score":0.02}
{"target":"MCMDC2 (minichromosome maintenance domain containing 2)","viability hit class":"no change","caspase hit class":"no change","viability robust z-score":1.64,"caspase robust z-score":-0.14}
{"target":"CHD9 (chromodomain helicase DNA binding protein 9)","viability hit class":"no change","caspase hit class":"no change","viability robust z-score":0.6,"caspase robust z-score":0.79}
{"target":"GRPR (gastrin releasing peptide receptor)","viability hit class":"no change","caspase hit class":"no change","viability robust z-score":-0.88,"caspase robust z-score":-0.64}
{"target":"PLAC8 (placenta associated 8)","viability hit class":"no change","caspase hit class":"no change","viability robust z-score":-0.21,"caspase robust z-score":0.02}
{"target":"TMOD3 (tropomodulin 3)","viability hit class":"no change","caspase hit class":"no change","viability robust z-score":-0.58,"caspase robust z-score":1.88}
{"target":"HTRA2 (HtrA serine peptidase 2)","viability hit class":"no change","caspase hit class":"no change","viability robust z-score":0.14,"caspase robust z-score":-0.86}
{"target":"H2AC7 (H2A clustered histone 7)","viability hit class":"no change","caspase hit class":"no change","viability robust z-score":-1.46,"caspase robust z-score":0.03}
{"target":"RNF180 (ring finger protein 180)","viability hit class":"no change","caspase hit class":"no change","viability robust z-score":-0.26,"caspase robust z-score":-0.42}
{"target":"ADAM10 (ADAM metallopeptidase domain 10)","viability hit class":"no change","caspase hit class":"no change","viability robust z-score":-0.43,"caspase robust z-score":-0.31}
{"target":"MISP (mitotic spindle positioning)","viability hit class":"no change","caspase hit class":"no change","viability robust z-score":0.81,"caspase robust z-score":-0.84}
{"target":"INTS7 (integrator complex subunit 7)","viability hit class":"no change","caspase hit class":"no change","viability robust z-score":-0.8,"caspase robust z-score":0.37}
{"target":"ABCB4 (ATP binding cassette subfamily B member 4)","viability hit class":"no change","caspase hit class":"no change","viability robust z-score":-0.66,"caspase robust z-score":1.21}

2 of these entries, set out differently:
{"target": "MISP (mitotic spindle positioning)", "viability hit class": "no change", "caspase hit class": "no change", "viability robust z-score": 0.81, "caspase robust z-score": -0.84}
{"target": "INTS7 (integrator complex subunit 7)", "viability hit class": "no change", "caspase hit class": "no change", "viability robust z-score": -0.8, "caspase robust z-score": 0.37}

Continued:
{"target":"RENBP (renin binding protein)","viability hit class":"no change","caspase hit class":"no change","viability robust z-score":0.74,"caspase robust z-score":1.42}
{"target":"SENP3 (SUMO specific peptidase 3)","viability hit class":"no change","caspase hit class":"no change","viability robust z-score":1.38,"caspase robust z-score":1.74}
{"target":"PNPLA3","viability hit class":"no change","caspase hit class":"no change","viability robust z-score":-0.07,"caspase robust z-score":-0.91}
{"target":"COL6A1 (collagen type VI alpha 1 chain)","viability hit class":"no change","caspase hit class":"no change","viability robust z-score":-0.21,"caspase robust z-score":3.62}
{"target":"KRT17 (keratin 17)","viability hit class":"no change","caspase hit class":"no change","viability robust z-score":-0.92,"caspase robust z-score":-0.4}
{"target":"LCE3B (late cornified envelope 3B)","viability hit class":"no change","caspase hit class":"no change","viability robust z-score":-0.08,"caspase robust z-score":-0.69}
{"target":"STK16 (serine/threonine kinase 16)","viability hit class":"no change","caspase hit class":"no change","viability robust z-score":0.48,"caspase robust z-score":2.69}
